Laboratory results: PubChem BioAssay AID686938 (Drosophila RNAi Screening Center, 2013)

Aim: 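Knock-downs reducing store-operated calcium influx in Drosophila cells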 (primary screen)
System: Drosophila S2R+ cells
Knock-down reagent: long dsRNA against Drosophila genes, about 0.25 µg dsRNA per well, roughly 10,000 cells
Duration: 5 days of knock-down before the calcium assay
Conditions: thapsigargin (SERCA pump blocker) to empty calcium stores; entry signal taken 4 min after adding it
Measured: 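Duplicate raw fluo-4 intensities per well from a plate reader, at rest and four minutes after thapsigargin emptied calcium stores; entry-to-rest ratio filled for only some wells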
Reading the numbers: calcium entry signal: higher = stronger calcium signal after store depletion; resting calcium signal: higher = higher resting calcium signal
Units: calcium entry signal in fluorescence units; resting calcium signal in fluorescence units
Hit rule: 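Hit if the duplicate-averaged plate z-score for entry over resting signal is under −3; wells with weak total dye signal (Fmax z < −2) or more than 5 off-targets removed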
Meaning of the calls: active = strongly reduced calcium entry; inactive = no strong reduction
The deposit covers about 23,000 reagents; shown is a random part of those with a known target gene and a result. In the full data, 75 (0.33%) are marked active. 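Raw plate signals without normalisation; calls rest on plate z-scores that were not deposited; ratio present for only 364 wells.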 Unmarked entries are inactive. The numbers tell different reagents against one gene apart. Names joined by + are all predicted targets of the reagent. The record does not give: the dose of the treatment.

| target | dsRNA no. | calcium entry signal, replicate 1 | calcium entry signal, replicate 2 | resting calcium signal, replicate 1 | resting calcium signal, replicate 2 |
| --- | --- | --- | --- | --- | --- |
| Tret1-1 (GeneID 36248) | 1 | 3.14e7 | 3.57e7 | 1.58e7 | 1.66e7 |
| Tret1-1 (GeneID 36248) | 2 | 2.93e7 | 3.75e7 | 1.57e7 | 1.77e7 |
| CG34011 (GeneID 3885619) | 1 | 2.58e7 | 3.57e7 | 1.42e7 | 1.59e7 |
| Snap29 (GeneID 37774) | 1 | 5.07e7 | 5.22e7 | 2.38e7 | 2.29e7 |
| Idua (GeneID 34544) | 1 | 4.65e7 | – | 2.23e7 | – |
| CG10154 (GeneID 39509) | 1 | 3.19e7 | 3.89e7 | 1.63e7 | 1.86e7 |
| Prosalpha6T (GeneID 34726) | 1 | 4.48e7 | 3.34e7 | 2.01e7 | 1.62e7 |
| Pez (GeneID 33882) | 1 | 3.11e7 | 3.89e7 | 1.72e7 | 1.81e7 |
| CG17195 (GeneID 43113) | 1 | 3.70e7 | 6.73e7 | 1.80e7 | 2.76e7 |
| Adgf-B (GeneID 39975) | 1 | 5.82e7 | 6.49e7 | 2.48e7 | 2.52e7 |
| Spindly (GeneID 33578) | 1 | 2.45e7 | 3.51e7 | 1.60e7 | 1.91e7 |
| mthl1 (GeneID 32637) | 1 | 2.88e7 | 3.77e7 | 1.52e7 | 1.72e7 |

Ordered by “resting calcium signal, replicate 1” (descending): some entries from above.
| target | dsRNA no. | calcium entry signal, replicate 1 | calcium entry signal, replicate 2 | resting calcium signal, replicate 1 | resting calcium signal, replicate 2 |
| --- | --- | --- | --- | --- | --- |
| Snap29 (GeneID 37774) | 1 | 5.07e7 | 5.22e7 | 2.38e7 | 2.29e7 |
| CG34011 (GeneID 3885619) | 1 | 2.58e7 | 3.57e7 | 1.42e7 | 1.59e7 |

The listing continues.
| target | dsRNA no. | calcium entry signal, replicate 1 | calcium entry signal, replicate 2 | resting calcium signal, replicate 1 | resting calcium signal, replicate 2 |
| --- | --- | --- | --- | --- | --- |
| Syn2 (GeneID 36848) | 1 | 4.78e7 | 5.38e7 | 2.26e7 | 2.56e7 |
| ND-MNLL (GeneID 31697) | 1 | 2.25e7 | 4.15e7 | 1.23e7 | 1.88e7 |
| CG3420 (GeneID 35585) | 1 | 4.33e7 | 4.92e7 | 2.19e7 | 2.30e7 |
| eater (GeneID 43262) | 1 | 4.00e7 | 6.07e7 | 1.94e7 | 3.21e7 |
| eater (GeneID 43262) | 2 | 2.16e7 | 3.33e7 | 1.15e7 | 1.57e7 |
| CG42496 + Ppcdc | 1 | 2.88e7 | 5.49e7 | 1.45e7 | 2.46e7 |
| CG18810 (GeneID 59171) | 1 | 6.14e7 | 6.35e7 | 2.95e7 | 2.44e7 |
| CG33140 (GeneID 35642) | 1 | 3.95e7 | – | 2.13e7 | – |
| CG8065 (GeneID 39186) | 1 | 3.13e7 | 3.77e7 | 1.56e7 | 1.76e7 |
| CG16984 (GeneID 38322) | 1 | 3.80e7 | 5.72e7 | 1.93e7 | 2.37e7 |
| CG9410 + CG15908 | 1 | 4.39e7 | 3.99e7 | 2.15e7 | 1.95e7 |
| CG9410 + CG15908 | 2 | 4.45e7 | 4.09e7 | 2.24e7 | 1.95e7 |
